# From paper PMC4078943
# No constants are given. Whether binding was seen depends on the method and setting.
# Molecular target: Nicotiana benthamiana pathogenesis-related protein 10 (Nicotiana benthamiana)
# Test: two-hybrid; Matchmaker GAL4 Two-Hybrid System3 (Clontech); NbPR-10 in pGBKT7, P31 in pGADT7; S. cerevisiae AH109 and Y187; co-transformants plated on SD/-Ade/-His/-Leu/-Trp
binder,measurement,value
"Beet necrotic yellow vein virus RNA4-encoded P31 (protein, UniProt Q65670 1-282) MADGEICRCQVTDPPLIRHEDYDCTARMVQKRIEIGPLGVLLNLNMLFHMSRVRHIDVYPYLNNIMSISVSLDVPVSSGVGVGRVRVLIFTTSRERVGIFHGWQVVPGCFLNAPCYSGVDVLSDELCEANITNTSVSSVAMFNGSYRPEDVWILLLTSSTCYGYHDVVVDIEQCTLPSNIDGCVCCSGVCYFNDNHCFCGRRDSNPFNPPCFQFIKDCNELYGTNETKQFICDLVGDDNLDSVNTLTKEGWRRFCDVLWNTTYGDVESRTFARFLWFVFYHD",binding,no binding
